Test results published in the supplement of paper PMC10849652.
This is one part of the list.

Chains of the proteins cited; added tags and fusions are not shown. Lines headed by an entry give the natural chain unless they say otherwise; changes in a name come on top.
UniProt Q9P2W9: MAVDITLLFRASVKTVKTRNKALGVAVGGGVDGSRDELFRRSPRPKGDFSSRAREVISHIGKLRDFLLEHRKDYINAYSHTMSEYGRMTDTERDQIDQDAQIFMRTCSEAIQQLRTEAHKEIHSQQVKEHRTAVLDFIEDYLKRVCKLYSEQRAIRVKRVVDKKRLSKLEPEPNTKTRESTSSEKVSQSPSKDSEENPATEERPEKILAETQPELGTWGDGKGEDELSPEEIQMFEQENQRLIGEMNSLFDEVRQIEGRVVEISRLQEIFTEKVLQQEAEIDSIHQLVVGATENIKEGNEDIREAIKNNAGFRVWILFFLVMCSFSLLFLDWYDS
UniProt Q8TCJ2: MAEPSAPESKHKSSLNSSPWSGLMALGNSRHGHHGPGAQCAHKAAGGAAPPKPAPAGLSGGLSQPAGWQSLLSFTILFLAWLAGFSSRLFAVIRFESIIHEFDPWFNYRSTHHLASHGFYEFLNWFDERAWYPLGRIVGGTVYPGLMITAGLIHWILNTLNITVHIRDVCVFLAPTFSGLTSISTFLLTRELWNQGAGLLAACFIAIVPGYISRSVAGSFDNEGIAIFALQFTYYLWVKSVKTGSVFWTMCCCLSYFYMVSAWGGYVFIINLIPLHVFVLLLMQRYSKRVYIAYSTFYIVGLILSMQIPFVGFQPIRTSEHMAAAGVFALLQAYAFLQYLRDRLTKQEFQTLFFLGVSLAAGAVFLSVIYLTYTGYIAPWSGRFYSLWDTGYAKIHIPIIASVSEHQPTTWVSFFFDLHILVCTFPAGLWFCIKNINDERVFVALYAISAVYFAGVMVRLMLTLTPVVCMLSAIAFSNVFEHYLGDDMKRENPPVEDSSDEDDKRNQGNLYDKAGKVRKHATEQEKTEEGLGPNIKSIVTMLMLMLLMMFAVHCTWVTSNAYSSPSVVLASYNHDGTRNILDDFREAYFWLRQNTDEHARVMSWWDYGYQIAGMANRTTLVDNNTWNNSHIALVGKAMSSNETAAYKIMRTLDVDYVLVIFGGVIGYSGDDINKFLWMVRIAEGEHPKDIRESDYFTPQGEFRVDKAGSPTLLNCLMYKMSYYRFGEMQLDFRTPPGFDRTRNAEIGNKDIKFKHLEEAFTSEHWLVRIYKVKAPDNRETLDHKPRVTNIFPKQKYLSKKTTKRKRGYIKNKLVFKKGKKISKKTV
UniProt Q9UJZ1: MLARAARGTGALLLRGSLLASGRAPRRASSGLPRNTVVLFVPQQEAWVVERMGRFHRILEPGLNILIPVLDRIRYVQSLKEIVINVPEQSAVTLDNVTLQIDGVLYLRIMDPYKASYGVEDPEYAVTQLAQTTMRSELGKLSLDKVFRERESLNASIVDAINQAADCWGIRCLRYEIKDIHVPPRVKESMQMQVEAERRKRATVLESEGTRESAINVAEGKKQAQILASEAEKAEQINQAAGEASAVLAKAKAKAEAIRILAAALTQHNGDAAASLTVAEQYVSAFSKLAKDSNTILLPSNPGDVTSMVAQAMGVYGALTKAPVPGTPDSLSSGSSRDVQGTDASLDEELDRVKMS
UniProt P46977: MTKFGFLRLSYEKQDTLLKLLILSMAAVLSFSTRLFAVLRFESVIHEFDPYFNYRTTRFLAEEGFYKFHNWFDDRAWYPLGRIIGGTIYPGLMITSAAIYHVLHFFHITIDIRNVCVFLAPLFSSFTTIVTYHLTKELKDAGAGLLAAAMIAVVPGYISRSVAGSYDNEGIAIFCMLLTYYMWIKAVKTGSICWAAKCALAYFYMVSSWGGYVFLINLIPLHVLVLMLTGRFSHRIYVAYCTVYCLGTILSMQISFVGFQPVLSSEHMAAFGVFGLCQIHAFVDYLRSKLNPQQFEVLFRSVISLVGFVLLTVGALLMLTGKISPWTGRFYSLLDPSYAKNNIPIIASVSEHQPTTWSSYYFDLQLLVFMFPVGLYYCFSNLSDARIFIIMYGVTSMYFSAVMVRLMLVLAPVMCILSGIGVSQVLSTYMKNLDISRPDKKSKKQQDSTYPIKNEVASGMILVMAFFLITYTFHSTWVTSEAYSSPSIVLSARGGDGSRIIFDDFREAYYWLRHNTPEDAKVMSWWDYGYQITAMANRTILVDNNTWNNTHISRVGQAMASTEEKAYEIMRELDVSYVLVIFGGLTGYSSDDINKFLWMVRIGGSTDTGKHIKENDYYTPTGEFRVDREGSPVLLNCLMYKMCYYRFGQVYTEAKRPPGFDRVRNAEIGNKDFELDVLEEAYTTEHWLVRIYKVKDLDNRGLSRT
UniProt O60506: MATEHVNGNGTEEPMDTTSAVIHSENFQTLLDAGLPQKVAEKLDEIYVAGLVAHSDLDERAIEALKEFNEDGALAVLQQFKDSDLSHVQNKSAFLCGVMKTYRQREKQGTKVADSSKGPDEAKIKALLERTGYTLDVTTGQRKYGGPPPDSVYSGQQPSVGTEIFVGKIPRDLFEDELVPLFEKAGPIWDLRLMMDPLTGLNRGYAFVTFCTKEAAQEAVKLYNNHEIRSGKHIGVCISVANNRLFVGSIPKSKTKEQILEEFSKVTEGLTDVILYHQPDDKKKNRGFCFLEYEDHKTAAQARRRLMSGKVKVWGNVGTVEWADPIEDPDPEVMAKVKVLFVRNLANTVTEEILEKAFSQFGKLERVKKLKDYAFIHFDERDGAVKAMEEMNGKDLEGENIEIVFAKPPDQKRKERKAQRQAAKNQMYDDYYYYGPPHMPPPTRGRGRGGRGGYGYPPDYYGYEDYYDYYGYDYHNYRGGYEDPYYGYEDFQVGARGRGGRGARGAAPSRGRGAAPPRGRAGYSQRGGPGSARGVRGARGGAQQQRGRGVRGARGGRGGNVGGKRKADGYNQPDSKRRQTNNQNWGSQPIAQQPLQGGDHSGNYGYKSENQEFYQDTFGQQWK
UniProt Q8IYB8: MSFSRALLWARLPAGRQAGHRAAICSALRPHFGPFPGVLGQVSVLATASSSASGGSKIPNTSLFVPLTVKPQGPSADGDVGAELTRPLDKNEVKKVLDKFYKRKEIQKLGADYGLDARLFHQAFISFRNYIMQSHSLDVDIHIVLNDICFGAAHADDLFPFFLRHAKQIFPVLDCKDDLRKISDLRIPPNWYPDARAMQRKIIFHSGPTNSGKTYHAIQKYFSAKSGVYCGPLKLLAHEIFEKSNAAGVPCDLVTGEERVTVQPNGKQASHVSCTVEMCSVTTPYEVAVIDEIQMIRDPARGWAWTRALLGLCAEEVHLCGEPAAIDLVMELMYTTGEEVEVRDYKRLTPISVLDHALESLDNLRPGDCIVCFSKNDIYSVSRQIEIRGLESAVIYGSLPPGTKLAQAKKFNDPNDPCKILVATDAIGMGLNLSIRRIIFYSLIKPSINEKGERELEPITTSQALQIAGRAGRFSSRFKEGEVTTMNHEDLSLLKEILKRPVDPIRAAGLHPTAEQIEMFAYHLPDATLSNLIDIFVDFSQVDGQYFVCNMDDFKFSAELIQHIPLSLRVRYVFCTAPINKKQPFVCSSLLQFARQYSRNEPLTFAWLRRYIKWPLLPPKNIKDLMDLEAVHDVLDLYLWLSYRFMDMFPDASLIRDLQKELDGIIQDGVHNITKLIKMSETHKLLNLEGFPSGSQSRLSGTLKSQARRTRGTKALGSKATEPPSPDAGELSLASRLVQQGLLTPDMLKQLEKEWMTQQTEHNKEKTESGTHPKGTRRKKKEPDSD
UniProt Q92804: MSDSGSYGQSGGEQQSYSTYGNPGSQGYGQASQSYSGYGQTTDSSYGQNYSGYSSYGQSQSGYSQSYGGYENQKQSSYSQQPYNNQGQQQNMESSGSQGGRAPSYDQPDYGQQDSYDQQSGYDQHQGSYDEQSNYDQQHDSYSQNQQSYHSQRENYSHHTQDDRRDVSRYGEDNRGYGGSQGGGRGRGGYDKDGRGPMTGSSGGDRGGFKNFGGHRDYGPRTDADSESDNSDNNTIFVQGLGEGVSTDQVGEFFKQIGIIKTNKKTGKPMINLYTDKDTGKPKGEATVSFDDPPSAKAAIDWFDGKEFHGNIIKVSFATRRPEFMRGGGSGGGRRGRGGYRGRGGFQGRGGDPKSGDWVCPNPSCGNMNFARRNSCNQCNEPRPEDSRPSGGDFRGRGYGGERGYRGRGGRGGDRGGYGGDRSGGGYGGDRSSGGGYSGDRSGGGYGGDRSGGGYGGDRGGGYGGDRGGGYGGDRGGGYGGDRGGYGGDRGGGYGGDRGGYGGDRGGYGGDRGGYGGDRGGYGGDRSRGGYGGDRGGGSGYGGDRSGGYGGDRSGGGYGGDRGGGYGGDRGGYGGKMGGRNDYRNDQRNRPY
UniProt Q13277: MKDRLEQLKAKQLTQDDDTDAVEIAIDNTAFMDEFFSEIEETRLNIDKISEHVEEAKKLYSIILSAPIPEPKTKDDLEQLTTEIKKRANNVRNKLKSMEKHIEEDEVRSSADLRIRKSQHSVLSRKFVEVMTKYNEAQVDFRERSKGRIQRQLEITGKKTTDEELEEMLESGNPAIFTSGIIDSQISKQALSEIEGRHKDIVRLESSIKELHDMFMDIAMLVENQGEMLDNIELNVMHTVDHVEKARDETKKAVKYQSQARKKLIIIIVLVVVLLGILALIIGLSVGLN
UniProt O15260: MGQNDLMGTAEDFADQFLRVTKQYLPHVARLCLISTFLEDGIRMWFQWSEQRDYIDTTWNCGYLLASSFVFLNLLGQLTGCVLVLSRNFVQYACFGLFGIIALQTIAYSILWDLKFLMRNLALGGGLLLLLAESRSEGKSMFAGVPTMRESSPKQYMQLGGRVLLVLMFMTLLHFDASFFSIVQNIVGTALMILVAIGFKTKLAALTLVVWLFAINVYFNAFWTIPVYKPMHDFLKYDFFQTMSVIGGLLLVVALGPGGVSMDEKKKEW
UniProt Q15750: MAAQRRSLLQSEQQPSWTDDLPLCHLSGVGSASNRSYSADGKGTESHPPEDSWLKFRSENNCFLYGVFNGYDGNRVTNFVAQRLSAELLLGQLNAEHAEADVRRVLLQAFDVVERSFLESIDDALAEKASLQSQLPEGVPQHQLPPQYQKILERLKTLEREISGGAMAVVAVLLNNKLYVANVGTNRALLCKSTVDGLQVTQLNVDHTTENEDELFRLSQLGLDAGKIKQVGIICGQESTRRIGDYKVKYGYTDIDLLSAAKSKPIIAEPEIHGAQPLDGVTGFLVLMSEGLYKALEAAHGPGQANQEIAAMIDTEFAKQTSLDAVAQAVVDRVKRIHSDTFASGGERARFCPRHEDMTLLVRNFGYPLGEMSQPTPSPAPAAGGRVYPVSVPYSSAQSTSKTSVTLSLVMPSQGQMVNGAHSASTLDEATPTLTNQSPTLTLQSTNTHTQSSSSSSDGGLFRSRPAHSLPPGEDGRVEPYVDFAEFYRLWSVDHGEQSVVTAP
UniProt A2RTX5: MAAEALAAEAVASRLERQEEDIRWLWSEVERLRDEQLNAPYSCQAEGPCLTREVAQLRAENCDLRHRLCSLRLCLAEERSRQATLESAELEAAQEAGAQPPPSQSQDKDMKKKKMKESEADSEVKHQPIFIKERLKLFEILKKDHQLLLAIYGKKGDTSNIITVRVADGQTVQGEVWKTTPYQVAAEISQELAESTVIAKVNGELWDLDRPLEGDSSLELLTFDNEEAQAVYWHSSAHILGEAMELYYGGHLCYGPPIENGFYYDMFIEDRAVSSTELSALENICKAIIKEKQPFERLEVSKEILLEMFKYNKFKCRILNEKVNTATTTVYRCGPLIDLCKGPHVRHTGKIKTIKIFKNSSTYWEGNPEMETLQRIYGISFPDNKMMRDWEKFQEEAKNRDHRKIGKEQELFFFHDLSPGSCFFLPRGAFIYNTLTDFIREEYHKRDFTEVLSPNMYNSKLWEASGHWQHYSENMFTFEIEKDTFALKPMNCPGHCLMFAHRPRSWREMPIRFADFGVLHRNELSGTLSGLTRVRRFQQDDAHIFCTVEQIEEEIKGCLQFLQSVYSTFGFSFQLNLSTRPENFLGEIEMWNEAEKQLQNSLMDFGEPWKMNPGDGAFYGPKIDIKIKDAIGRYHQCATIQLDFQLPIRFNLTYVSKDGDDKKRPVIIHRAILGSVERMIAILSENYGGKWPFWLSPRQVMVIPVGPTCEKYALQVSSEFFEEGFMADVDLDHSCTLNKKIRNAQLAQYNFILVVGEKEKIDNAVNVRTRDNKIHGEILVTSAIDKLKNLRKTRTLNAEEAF
UniProt Q9NVG8: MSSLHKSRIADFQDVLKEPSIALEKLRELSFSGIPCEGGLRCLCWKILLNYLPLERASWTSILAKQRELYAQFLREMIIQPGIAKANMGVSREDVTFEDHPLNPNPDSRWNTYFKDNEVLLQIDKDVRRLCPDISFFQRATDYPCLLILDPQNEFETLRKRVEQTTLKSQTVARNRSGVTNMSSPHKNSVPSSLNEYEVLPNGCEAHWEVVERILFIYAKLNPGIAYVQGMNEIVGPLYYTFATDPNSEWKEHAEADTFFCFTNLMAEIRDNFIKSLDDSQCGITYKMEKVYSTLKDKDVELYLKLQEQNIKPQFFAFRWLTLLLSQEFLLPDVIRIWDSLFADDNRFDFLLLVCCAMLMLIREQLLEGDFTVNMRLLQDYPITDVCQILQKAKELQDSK

Experiments:
Experiment in all cases: log2 fold change, soluble protein after heating vs DMSO (PISA); higher = thermal stabilisation; K562 cells, 10 uM, 30 min; active = over 0.2 and 3.5 SD of the protein, either way, in both replicates (recomputed)
[1] = compound: CS(=O)(=O)c1ccc(-c2cnc(N)c(C(=O)Nc3ccccc3)n2)cc1
Summary of the method: (§1)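 K562 cells at 2×10^6 cells/mL were exposed to 10 μM compound for 30 min, then aliquots were heated for 3 min across 48°C-58°C, pooled, and extracted in PBS containing 0.5% NP-40 at 4°C. The supernatant after 21,000xg for 90 min was taken as soluble protein and measured by TMTpro 16plex LC-MS/MS with channel sums equalised. Thermal stability is reported relative to control samples, with values from duplicates. Fold changes are given on a log2 scale.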

crizotinib = compound: C[C@@H](Oc1cc(-c2cnn(C3CCNCC3)c2)cnc1N)c1c(Cl)ccc(F)c1Cl [crizotinib]
Summary of the method: as §1

[2] = compound: C[C@@H]1COCCN1C2=NC(=NC(=C2)C3(CC3)S(=O)(=O)C)C4=C5C=CNC5=CC=C4
Summary of the method: as §1

[3] = compound: C[C@H](C1=CC=C(C=C1)C(=O)NC2=C3C=CNC3=NC=C2)N
Summary of the method: as §1

duvelisib = compound: C[C@H](Nc1ncnc2nc[nH]c12)c1cc2cccc(Cl)c2c(=O)n1-c1ccccc1 [duvelisib]
Summary of the method: as §1

gandotinib = compound: Cc1cc(Nc2cc(CN3CCOCC3)c3nc(C)c(Cc4ccc(Cl)cc4F)n3n2)n[nH]1 [gandotinib]
Summary of the method: as §1

tozasertib = compound: Cc1cc(Nc2cc(N3CCN(C)CC3)nc(Sc3ccc(NC(=O)C4CC4)cc3)n2)n[nH]1 [tozasertib]
Summary of the method: as §1

[4] = compound: Cc1cc(SCc2sc(-c3ccc(C(F)(F)F)cc3)nc2C)ccc1OCC(=O)O
Summary of the method: as §1

doramapimod = compound: Cc1ccc(-n2nc(C(C)(C)C)cc2NC(=O)Nc2ccc(OCCN3CCOCC3)c3ccccc23)cc1 [doramapimod]
Summary of the method: as §1

ispinesib = compound: Cc1ccc(C(=O)N(CCCN)[C@@H](c2nc3cc(Cl)ccc3c(=O)n2Cc2ccccc2)C(C)C)cc1 [ispinesib]
Summary of the method: as §1

Measured: log2 fold change

STX18 (UniProt Q9P2W9)
inactive: [1] 0.012 | crizotinib -0.041 | [2] 0.029 | [3] 0.054 | duvelisib 0.032 | gandotinib -0.055 | tozasertib -0.014 | [4] 0.109 | doramapimod 0.048 | ispinesib -0.095

TANGO2 isoform 4 (UniProt Q6ICL3)
inactive: [1] 0.052 | crizotinib 0.02 | [2] 0.107 | [3] -0.059 | duvelisib 0.029 | gandotinib -0.015 | tozasertib 0.012 | [4] 0.052 | doramapimod 0.017 | ispinesib 0.055

STT3B (UniProt Q8TCJ2)
inactive: [1] 0.006 | crizotinib 0.074 | [2] -0.047 | [3] 0.025 | duvelisib -0.122 | gandotinib 0.069 | tozasertib 0.009 | [4] -0.054 | doramapimod -0.017 | ispinesib -0.026

STOML2 (UniProt Q9UJZ1)
inactive: [1] -0.02 | crizotinib 0.075 | [2] -0.021 | [3] 0.031 | duvelisib 0.039 | gandotinib -0.097 | tozasertib -0.003 | [4] -0.019 | doramapimod -0.014 | ispinesib 0.051

STT3A (UniProt P46977)
inactive: [1] -0.015 | crizotinib 0.026 | [2] -0.041 | [3] 0.014 | duvelisib -0.026 | gandotinib -0.018 | tozasertib 0.009 | [4] -0.001 | doramapimod -0.008 | ispinesib -0.046

SYNCRIP isoform 3 (UniProt O60506)
inactive: [1] -0.038 | crizotinib 0 | [2] -0.291 | [3] 0.193 | duvelisib -0.004 | gandotinib 0.088 | tozasertib 0.105 | [4] -0.212 | doramapimod 0.052 | ispinesib -0.344

STX12 (UniProt Q86Y82)
inactive: [1] 0.002 | crizotinib -0.049 | [2] 0.01 | [3] -0.036 | duvelisib 0.048 | gandotinib -0.023 | tozasertib -0.035 | [4] 0.007 | doramapimod 0.02 | ispinesib -0.075

TAPT1 (UniProt Q6NXT6)
inactive: [1] -0.024 | crizotinib 0.059 | [2] -0.047 | [3] -0.025 | duvelisib 0.002 | gandotinib 0.039 | tozasertib -0.006 | [4] -0.039 | doramapimod 0.044 | ispinesib 0.02

SYPL1 (UniProt Q16563)
inactive: [1] 0.064 | crizotinib 0.072 | [2] 0.054 | [3] -0.056 | duvelisib 0.073 | gandotinib 0.266 | tozasertib -0.034 | [4] -0.026 | doramapimod -0.002 | ispinesib 0.026

TAGLN2 isoform 2 (UniProt P37802)
inactive: [1] 0.015 | crizotinib 0.013 | [2] 0.053 | [3] -0.1 | duvelisib 0.011 | gandotinib -0.029 | tozasertib 0.022 | [4] 0.021 | doramapimod -0.037 | ispinesib 0.057

TARS1 (UniProt P26639)
inactive: [1] 0.039 | crizotinib -0.147 | [2] 0.087 | [3] -0.032 | duvelisib -0.015 | gandotinib -0.064 | tozasertib -0.026 | [4] 0.054 | doramapimod -0.007 | ispinesib -0.12

TAF9B (UniProt Q9HBM6)
inactive: [1] 0.033 | crizotinib 0.096 | [2] -0.056 | [3] -0.134 | duvelisib -0.009 | gandotinib 0.159 | tozasertib -0.217 | [4] -0.194 | doramapimod 0.058

SUPV3L1 (UniProt Q8IYB8)
inactive: [1] -0.022 | crizotinib 0.018 | [2] 0.023 | [3] -0.06 | duvelisib 0.018 | gandotinib 0.004 | tozasertib -0.003 | [4] -0.013 | doramapimod -0.029 | ispinesib 0.079

Fetched one by one from above (two):
STX12 (UniProt Q86Y82)
inactive: [1] 0.002 | crizotinib -0.049 | [2] 0.01 | [3] -0.036 | duvelisib 0.048 | gandotinib -0.023 | tozasertib -0.035 | [4] 0.007 | doramapimod 0.02 | ispinesib -0.075

STX18 (UniProt Q9P2W9)
inactive: [1] 0.012 | crizotinib -0.041 | [2] 0.029 | [3] 0.054 | duvelisib 0.032 | gandotinib -0.055 | tozasertib -0.014 | [4] 0.109 | doramapimod 0.048 | ispinesib -0.095

The results go on:

TAF15 (UniProt Q92804)
inactive: [1] -0.059 | crizotinib 0.003 | [2] -0.116 | [3] 0.047 | duvelisib -0.078 | gandotinib 0.067 | tozasertib -0.008 | [4] -0.017 | doramapimod -0.013 | ispinesib 0.004

STX3 (UniProt Q13277)
inactive: [1] 0.057 | crizotinib -0.019 | [2] 0.053 | [3] -0.016 | duvelisib 0.087 | gandotinib -0.063 | tozasertib -0.002 | [4] -0.015 | doramapimod 0.009 | ispinesib -0.155

STMN3 (UniProt Q9NZ72)
inactive: [1] -0.054 | crizotinib -0.027 | [2] -0.048 | [3] -0.067 | duvelisib 0.021 | gandotinib 0.016 | tozasertib -0.011 | [4] -0.049 | doramapimod 0.038 | ispinesib 0.091

SYNJ2BP-COX16, A0A087WYV9
inactive: [1] -0.019 | crizotinib 0.012 | [2] -0.003 | [3] 0.041 | duvelisib 0.061 | gandotinib -0.063 | tozasertib 0.002 | [4] -0.026 | doramapimod 0.026 | ispinesib 0.006

SYNRG (UniProt Q9UMZ2)
inactive: [1] -0.013 | crizotinib -0.017 | [2] 0 | [3] 0.019 | duvelisib 0.084 | gandotinib -0.131 | tozasertib -0.025 | [4] 0.039 | doramapimod 0.034 | ispinesib 0.072

TACC1 isoform 2 (UniProt O75410)
inactive: [1] 0.037 | crizotinib 0.047 | [2] 0.059 | [3] 0.005 | duvelisib 0.067 | gandotinib -0.006 | tozasertib 0.011 | [4] -0.016 | doramapimod 0.002 | ispinesib -0.03

SURF4 (UniProt O15260)
inactive: [1] -0.005 | crizotinib 0.055 | [2] -0.028 | [3] -0.06 | duvelisib 0.072 | gandotinib 0.012 | tozasertib -0.01 | [4] -0.038 | doramapimod 0.048 | ispinesib -0.023

TAF10 (UniProt Q12962)
inactive: [1] -0.085 | crizotinib 0.123 | [2] 0.153 | [3] -0.002 | duvelisib 0.014 | gandotinib 0.05 | tozasertib 0.007 | [4] -0.067 | doramapimod -0.071 | ispinesib 0.073

TALDO1 (UniProt P37837)
inactive: [1] -0.002 | crizotinib -0.035 | [2] 0.041 | [3] -0.095 | duvelisib 0.02 | gandotinib -0.102 | tozasertib -0.017 | [4] 0.042 | doramapimod -0.015 | ispinesib -0.012

STRN4 isoform 3 (UniProt Q9NRL3)
inactive: [1] 0.025 | crizotinib 0.116 | [2] -0.059 | [3] -0.034 | duvelisib 0.036 | gandotinib 0.026 | tozasertib 0.05 | [4] -0.006 | doramapimod -0.013 | ispinesib 0.028

TAB1 (UniProt Q15750)
inactive: [1] 0.058 | crizotinib -0.06 | [2] 0.006 | [3] 0.04 | duvelisib -0.039 | gandotinib -0.081 | tozasertib 0.067 | [4] 0.074 | doramapimod -0.05 | ispinesib 0.001

TARBP2 (UniProt Q15633)
inactive: [1] 0.121 | crizotinib -0.139 | [2] -0.171 | [3] 0.242 | duvelisib 0.007 | gandotinib 0.143 | tozasertib 0.06 | [4] 0.032 | doramapimod 0.174 | ispinesib 0.076

TACO1 (UniProt Q9BSH4)
inactive: [1] 0.064 | crizotinib 0 | [2] 0.095 | [3] -0.033 | duvelisib 0.159 | gandotinib 0.058 | tozasertib 0.031 | [4] 0.14 | doramapimod 0 | ispinesib 0.157

TARSL2 (UniProt A2RTX5)
inactive: [1] 0.015 | crizotinib -0.16 | [2] 0.081 | [3] -0.012 | duvelisib 0.063 | gandotinib -0.08 | tozasertib -0.072 | [4] 0.006 | doramapimod 0.072 | ispinesib -0.134

TBC1D13 (UniProt Q9NVG8)
inactive: [1] 0.006 | crizotinib 0.036 | [2] 0.057 | [3] -0.047 | duvelisib 0.037 | gandotinib -0.019 | tozasertib -0.007 | [4] -0.019 | doramapimod -0.003 | ispinesib 0.055

SYNCRIP (UniProt O60506)
inactive: [1] -0.095 | crizotinib 0.025 | [2] -0.214 | [3] 0.18 | duvelisib -0.119 | gandotinib 0.117 | tozasertib 0.028 | [4] 0.017 | doramapimod 0.035 | ispinesib -0.155

SUGT1 (UniProt Q9Y2Z0)
inactive: [1] 0.012 | crizotinib 0.014 | [2] 0.009 | [3] -0.117 | duvelisib 0.004 | gandotinib -0.049 | tozasertib 0.055 | [4] 0 | doramapimod -0.033 | ispinesib 0.061
